The DeepSol protein solubility set

Test: soluble on expression in E. coli; label from the status in PepcDB or PDB records

Sequence | soluble on expression in E. coli
GPGSMGVDYYKVLGVSRNATPNEIKKAYHQLALKYHPDKNADNREKAERKFKEVSEAYDVLSDEKKKKIYDLYGEEGLKGGIPEDGGAGMGGAGMRFGGMPGGMPGGVRGATYQFSSTDAFKIFNQFFGTSDPFAGGEAFGGGGPGLHRVFRGFGGPEGFASGFGTPQSSPTRDVPPMEYTFACTLEEIYTGCTKKFNVSRNMPSGPEKKIFEVKVLPGYKKGTKIRFEREGGQVEGYPPNVFADMVFILDERPHPRFERRDADLHTTLHINLKQALLGSTVFVKGIDGQTISLPLNGVSKSGRKLRVSGSGLPDRKTNRNGDLYVTIAVDFPDSLTEDTKRLIEKCTF | soluble
GRFTREGIEALEDIAKNIGEAMLRKQAEEKLVASERFLRMLTNQLPGMVGYWDRDLRCRFANDAYKEWFGRSPEQIIGLTVQELMGEELFRLSEPYIRGALQGEPQNFERELVKPNGETGYTWAQYIPDMVND | not soluble
MAGSREVVAMDCEMVGLGPHRESGLARCSLVNVHGAVLYDKFIRPEGEITDYRTRVSGVTPQHMVGATPFAVARLEILQLLKGKLVVGHDLKHDFQALKEDMSGYTIYDTSTDRLLWREAKLDHCRRVSLRVLSERLLHKSIQNSLLGHSSVEDARATMELYQISQRIRARRGLPRLAVSDLEHHHHHH | soluble
MANLLPVTVLSGFLGAGKSTLLNYVLRNRENLRVAVIVNDMSEINIDGSEVQRDVSLNRAEEKLIEMSNGCICCTLREDLLEEVSRLAQDGRFDYLLIESTGISEPLPVAETFTFRDEAGKSLMDLARLDTMVTVVDGVNFLLDYEAADGLSTRGESLGEDDDRSITDLLIEQIEFADVILLSKIDLISSSEREELMAILKRLNPEAEIVPMVMGQVPLATILNTGRFDFQRASQAPGWLKEMRGEHTPETEEYGIASTAYRARRPFHPERFFNFINRPWTNGKLLRSKGFFWLASKYKDAGSWSQAGGLMRQGFAGRWWRFVNRESWPEDRESVKSILENWSTETGDCRQELVFIGQNIDFERLTAELDNCLLTDAEMEAGVERWRTLADPFGDWYEEEVAA | not soluble
MAQAEVLNLESGAKQVLQETFGYQQFRPGQEEIIDTVLSGRDCLVVMPTGGGKSLCYQIPALLLNGLTVVVSPLISLMKDQVDQLQANGVAAACLNSTQTREQQLEVMTGCRTGQIRLLYIAPERLMLDNFLEHLAHWNPVLLAVDEAHCISQWGHDFRPEYAALGQLRQRFPTLPFMALTATADDTTRQDIVRLLGLNDPLIQISSFDRPNIRYMLMEKFKPLDQLMRYVQEQRGKSGIIYCNSRAKVEDTAARLQSKGISAAAYHAGLENNVRADVQEKFQRDDLQIVVATVAFGMGINKPNVRFVVHFDIPRNIESYYQETGRAGRDGLPAEAMLFYDPADMAWLRRCLEEKPQGQLQDIERHKLNAMGAFAEAQTCRRLVLLNYFGEGRQEPCGNCDICLDPPKQYDGSTDAQIALSTIGRVNQRFGMGYVVEVIRGANNQRIRDYGHDKLKVYGMGRDKSHEHWVSVIRQLIHLGLVTQNIAQHSALQLTEAARPVLRGESSLQLAVPRIVALKPKAM | soluble
MAQASDSTAMEVEEATNQTVKKRFEVKKWSAVALWAWDIQVDNCAICRNHIMDLCIECQANQAAGLKDECTVAWGNCNHAFHFHCISRWLKTRQVCPLDNREWEFQKYGH | not soluble
MEFKYNGKVESVELNKYSKTLTQDPTQPATQAMYYGIGFKDEDFKKAQVGIVSMDWDGNPCNMHLGTLGSKIKSSVNQTDGLIGLQFHTIGVSDGIANGKLGMRYSLVSREVIADSIETNAGAEYYDAIVAIPGCDKNMPGSIIGMARLNRPSIMVYGGTIEHGEYKGEKLNIVSAFESLGQKITGNISDEDYHGVICNAIPGQGACGGMYTANTLAAAIETLGMSLPYSSSNPAVSQEKQEECDEIGLAIKNLLEKDIKPSDIMTKEAFENAITIVMVLGGSTNAVLHIIAMANAIGVEITQDDFQRISDITPVLGDFKPSGKYMMEDLHKIGGLPAVLKYLLKEGKLHGDCLTVTGKTLAENVETALDLDFDSQDIMRPLKNPIKATGHLQILYGNLAQGGSVAKISGKEGEFFKGTARVFDGEQHFIDGIESGRLHAGDVAVIRNIGPVGGPGMPEMLKPTSALIGAGLGKSCALITDGRFSGGTHGFVVGHIVPEAVEGGLIGLVEDDDIIEIDAVNNSISLKVSDEEIAKRRANYQKPTPKATRGVLAKFAKLTRPASEGCVTDLLEHHHHHH | soluble
MEKYNPHAIEAKWQRFWEEKGFMKAKDLPGGRGKQYVLVMFPYPSGDLHMGHLKNYTMGDVLARFRRMQGYEVLHPMGWDAFGLPAENAALKFGVHPKDWTYANIRQAKESLRLMGILYDWDREVTTCEPEYYRWNQWIFLKMWEKGLAYRAKGLVNWCPKCQTVLANEQVVEGRCWRHEDTPVEKRELEQWYLRITAYAERLLKDLEGLNWPEKVKAMQRAWIGRSEGAEILFPVEGKEVRIPVFTTRPDTLFGATFLVLAPEHPLTLELAAPEKREEVLAYVEAAKRKTEIERQAEGREKTGVFLGAYALNPATGERIPIWTADYVLFGYGTGAIMAVPAHDQRDYEFARKFGLPIKKVIERPGEPLPEPLERAYEEPGIMVNSGPFDGTESEEGKRKVIAWLEEKGLGKGRVTYRLRDWLISRQRYWGTPIPMVHCEACGVVPVPEEELPVLLPDLKDVEDIRPKGKSPLEAHPEFYETTCPKCGGPAKRDTDTMDTFFDSSWYYLRYTDPHNDRLPFDPEKANAWMPVDQYIGGVEHAVLHLLYSRFFTKFLHDLGMVKVEEPFQGLFTQGMVLAWTDFGPVEVEGSVVRLPEPTRIRLEIPESALSLEDVRKMGAELRPHEDGTLHLWKPAVMSKSKGNGVMVGPFVKEQGADIARITILFAAPPENEMVWTEEGVQGAWRFLNRIYRRVAEDREALLETSGVFQAEALEGKDRELYGKLHETLKKVTEDLEALRFNTAIAALMEFLNALYEYRKDRPVTPVYRTAIRYYLQMLFPFAPHLAEELWHWFWPDSLFEAGWPELDEKALEKDVVEVAVQVNGRVRGTIHIPKDAPLEVARAEALKVRNVRAHLEGKEVVKEIYVPGKILNLVVRG | soluble
MEYKRQSNGGSGGGGRQLNNTCNSNISVPNAFSPRSYSSRGTEIWSVATSGSSNSTTELQGAQSPSMGSRVSDSHLLTLGSDSRSVSNNLNIAATMAEPNLEEHLKGVLHKKEAAKLTSPSDFTLYYRVTKGQSKSEVATTIPLFICYRNADNQVSNFRVVQVLTENNSMWWTVIINKQHTQMFRRLSDLVRCYHSYRYINPETGGSEIFPISKCSSQVPTNP | not soluble
MGHHHHHHSHMEAPEVEPRLVYCYPVRLAVSAPPMPSVEMHMENNVVCIRYKGEMVKVSRNYFSKLWLLYRYSCIDDSAFERFLPRVWCLLRRYQMMFGVGLYEGTGLQGSLPVHVFEALHRLFGVSFECFASPLNCYFRQYCSAFPDTDGYFGSRGPCLDFAPLSGSFEANPPFCEELMDAMVSHFERLLESSPEPLSFIVFIPEWREPPTPALTRMEQSRFKRHQLILPAFEHEYRSGSQHICKKWVPGRAGEGGWAGQARPSPTLSHCLCPQGGNALQGRPQHGCALPTERPWLCQVGADA | soluble
MGHHHHHHSHMSEDSEKEDYSDRTISDEDESDEDMFMKFVSEDLHRCALLTADSFGDPFFPRTTQILLEYQLGRWVPRLREPRDLYGVSSSGPLSPTRWPYHCEVIDEKVQHIDGVSCWSESHQAGAQWCDLGSLQPPPPRFKRFACFSLLSSRDYRRVPPRPANFVFLVETGFHHVGQDGLRLLTS | not soluble
MGHHHHHHSHMTSEFFSAQLRAQISDDTTHPISYYKPEFYMPDDGGTAHLSVVAEDGSAVSATSTINLYFGSKVRSPVSGILLNNEMDDFSSTSITNEFGVPPSPANFIQPGKQPLSSMCPTIMVGQDGQVRMVVGAAGGTQITMATALVCVTPFLPGRAHPAQPPSHADHTPMPQAIIYNLWFGYDVKWAVEEPRLHNQLLPNVTTVERNIDQEVTAALETRHHHTQITSTFIAVVQAIVRMAGGWAAASDSRKGGEPAGY | soluble
MGNCAKRPWRRGPKDPLQWLGSPPRGSCPSPSSSPKEQGDPAPGVQGYSVLNSLVGPACIFLRPSIAATQLDRELRPEEIEELQVAFQEFDRDQDGYIGCRELGACMRTLGYMPTEMELIEISQQISGGKVDFEDFVELMGPKLLAETADMIGVRELRDAFREFDTNGDGRISVGELRAALKALLGERLSQREVDEILQDVDLNGDGLVDFEEFVRMMSRLEHHHHHH | not soluble
MKDHDAIKLFIGQIPRNLDEKDLKPLFEEFGKIYELTVLKDRFTGMHKGCAFLTYCERESALKAQSALHEQKTLPGMNRPIQVKPADSESRGGSSCLRQPPSHRKLFVGMLNKQQSEDDVRRLFEAFGNIEECTILRGPDGNSKGCAFVKYSSHAEAQAAINALHGSQTMPGASSSLVVKFADTDKERTMRRMQQMAGQMGMFNPMAIPFGAYGAYAQALMQQQAALMASVAQGGYLNPMAAFAAAQMQQMAALNMNGLAAAPMTPTSGGSTPPGITAPAVPSIPSPIGVNGFTGLPPQANGQPAAEAVFANGIHPYPAQSPTAADPLQQAYAGVQQYAAAAYPAAYGQISQAFPQPPPMIPQQQREGPEGCNLFIYHLPQEFGDAELMQMFLPFGFVSFDNPASAQTAIQAMNGFQIGMKRLKVQLKRPKDANRPY | soluble
MRTLFNLLWLALACSPVHTTLSKSDAKKAASKTLLEKSQFSDKPVQDRGLVVTDLKAESVVLEHRSYCSAKARDRHFAGDVLGYVTPWNSHGYDVTKVFGSKFTQISPVWLQLKRRGREMFEVTGLHDVDQGWMRAVRKHAKGLHIVPRLLFEDWTYDDFRNVLDSEDEIEELSKTVVQVAKNQHFDGFVVEVWNQLLSQKRVGLIHMLTHLAEALHQARLLALLVIPPAITPGTDQLGMFTHKEFEQLAPVLDGFSLMTYDYSTAHQPGPNAPLSWVRACVQVLDPKSKWRSKILLGLNFYGMDYATSKDAREPVVGARYIQTLKDHRPRMVWDSQASEHFFEYKKSRSGRHVVFYPTLKSLQVRLELARELGVGVSIWELGQGLDYFYDLL | soluble
MSHRTSSTFRAERSFHSSSSSSSSSTSSSASRALPAQDPPMEKALSMFSDDFGSFMRPHSEPLAFPARPGGAGNIKTLGDAYEFAVDVRDFSPEDIIVTTSNNHIEVRAEKLAADGTVMNTFAHKCQLPEDVDPTSVTSALREDGSLTIRARRHPHTEHVQQTFRTEIKI | soluble
MSLAQQVRWDERARCQAAQGPRVRERAAEEVAGRAVVRERPDQGCTAKKVVSAPARRTLVREWIGRGASERRALAVIGMSASALRYCPREDRNGELRERICALAHRHRRYGVGMIYLKLRQEGRIVNYKRVERLYREQQLQVRRRKRKKVPIGERQPLLRPSQANQVWSMDFVFDRTAEGRVIKCLVIVDDATHEAVAIEVERAISGHGVTRVLDRLAHSRGLPKVIRTDNGKEFCGKAMVAWAHARNVQLRLIQPGKPNQNAYVESFNGRLRDECLNEHWFPTLLHARTEIERWRREYNEDRPKKAIGGMTPAAYAQHLANTDIINPGLEGHHHHHH | soluble
MSLSPNPLLQVRNLSVSFTTNDGVVDAVKNVSFDIRPGETLAIVGESGSGKSVSTNALMQLLPKNARIHPESSIMFEGEELLNKTDTQMRRIRGDRIGMIFQEPMTSLNPYMRVGVQVAEAIRCHRNVSQNQAKQRVLELFQLVHLPDPKGAYQKFPHEFSGGQLQRIMIAMALINEPDILIADEPTTALDVTVQAEVLRLIKEIQANMGMAILFITHDLGVVKFVADRVLVMCKGDVVEQGSTEQLFLQPEHDYTRMLINSIPKGSKDPVAVDAAPLLKAEDIRVKFLVKPYFISRRNQYFEAVKGISLELKQGETLGIVGESGSGKSTLGRALIGLLPSTGQIAFKGQDFRALSEKQRLALKKDIQMVFQDPYGSLSPRMTVGEIITEGLLVHQPHISKLERMQRARRALEEVRLDPNSINRYPHEFSGGQRQRIAIARALILEPSFILLDEPTSALDRSVQLTVIELLKEIQKRRNIGYLFISHDLAVVKALSDRVLVMQKGQVMEQGSAESIFHNPQHEYTKKLIAASFDILEENAEGHHHHHH | not soluble
